Measurements from PMC3379943.
Results are given in words; binding and its absence hold for the method and conditions named. In cells and extracts the contact can be indirect. Some entries that bind do so weakly or less than the wild type. For some assays here: Where a sequence is shown, tags or fusion partners need not be part of it.

By UniProt entry, the sequences of proteins in these tests, tags left out. Residues count along the entry.
UniProt P98156, residues 28-873: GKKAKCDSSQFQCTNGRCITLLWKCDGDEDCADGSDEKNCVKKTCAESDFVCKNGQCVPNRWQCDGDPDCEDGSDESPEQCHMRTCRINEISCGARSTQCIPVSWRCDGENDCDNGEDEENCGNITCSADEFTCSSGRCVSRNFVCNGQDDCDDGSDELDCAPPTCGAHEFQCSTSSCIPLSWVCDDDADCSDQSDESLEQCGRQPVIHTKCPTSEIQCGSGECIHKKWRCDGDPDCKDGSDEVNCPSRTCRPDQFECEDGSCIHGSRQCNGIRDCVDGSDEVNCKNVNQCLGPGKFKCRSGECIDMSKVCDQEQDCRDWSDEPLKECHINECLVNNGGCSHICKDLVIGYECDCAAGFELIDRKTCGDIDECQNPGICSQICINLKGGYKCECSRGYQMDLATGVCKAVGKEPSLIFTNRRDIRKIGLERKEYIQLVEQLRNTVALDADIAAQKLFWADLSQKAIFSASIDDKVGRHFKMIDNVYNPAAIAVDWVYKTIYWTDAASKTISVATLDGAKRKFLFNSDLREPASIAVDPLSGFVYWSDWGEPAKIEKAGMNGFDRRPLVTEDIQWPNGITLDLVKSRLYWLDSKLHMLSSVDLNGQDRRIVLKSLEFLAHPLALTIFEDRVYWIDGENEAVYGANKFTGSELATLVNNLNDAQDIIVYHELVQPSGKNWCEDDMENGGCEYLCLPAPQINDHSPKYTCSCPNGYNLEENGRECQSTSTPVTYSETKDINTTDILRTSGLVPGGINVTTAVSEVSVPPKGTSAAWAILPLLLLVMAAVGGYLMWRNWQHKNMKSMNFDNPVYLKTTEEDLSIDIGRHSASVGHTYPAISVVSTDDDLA

What was measured:
[1] = target: full length VLDLR (HA-tagged on the C terminal) (UniProt P98155); experiment: co-IP; COS7 cells transfected with APP-v5 and VLDLR-HA with empty vector, FE65-GFP or FE65-PTB2 domain-GFP; lysates immunoprecipitated with anti-HA or 5F3 (VLDLR) and probed with anti-V5 or 22C11 (APP), or with anti-V5 and probed with anti-HA; FE65 increased the co-precipitate, FE65 PTB2 decreased it against full length FE65
[2] = target: T1, FE65, endogenous in mouse brain (mouse (endogenous in brain)) (UniProt Q9QXJ1); experiment: co-IP; mouse whole brain lysates (100 ug), IP buffer 50 mM Tris-HCl pH 8.0, 0.15 M NaCl, 1% Nonidet P-40, overnight at 4°C with antibody (5F3, anti-FE65 or C1/6.1; IgG as control) and protein G-Sepharose; also lysates of 13 month old FE65 knockout mice against wild-type littermates (APP band with VLDLR decreased)
T1 sequence: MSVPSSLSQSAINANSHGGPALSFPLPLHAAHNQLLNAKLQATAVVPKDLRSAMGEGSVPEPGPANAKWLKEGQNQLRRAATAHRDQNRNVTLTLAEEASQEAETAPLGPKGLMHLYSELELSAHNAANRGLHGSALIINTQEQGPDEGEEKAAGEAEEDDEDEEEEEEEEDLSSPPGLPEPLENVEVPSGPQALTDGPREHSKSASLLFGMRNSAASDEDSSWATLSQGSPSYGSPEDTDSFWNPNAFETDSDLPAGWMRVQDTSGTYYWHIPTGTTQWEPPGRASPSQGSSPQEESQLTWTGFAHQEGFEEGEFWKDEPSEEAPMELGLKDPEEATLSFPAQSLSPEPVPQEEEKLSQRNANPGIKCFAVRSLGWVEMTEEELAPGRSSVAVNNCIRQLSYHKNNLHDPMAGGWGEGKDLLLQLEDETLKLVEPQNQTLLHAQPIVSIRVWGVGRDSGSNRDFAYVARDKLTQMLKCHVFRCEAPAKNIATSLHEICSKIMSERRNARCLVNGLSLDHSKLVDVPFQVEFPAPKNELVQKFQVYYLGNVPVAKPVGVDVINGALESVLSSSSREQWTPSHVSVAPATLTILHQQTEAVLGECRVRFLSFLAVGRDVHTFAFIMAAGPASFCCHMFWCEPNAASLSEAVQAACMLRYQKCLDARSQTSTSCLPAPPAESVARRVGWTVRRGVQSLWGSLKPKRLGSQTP

[3] = target: T2, full length FE65 (myc-tagged on the C terminal) (UniProt O00213); experiment: co-IP; COS7 cells co-transfected with VLDLR and FE65 constructs; cell lysates (100-200 ug) immunoprecipitated by the tag or 5F3 (anti-HA, anti-myc, 5F3, anti-GFP) and the precipitate probed for the other protein's tag
T2 sequence: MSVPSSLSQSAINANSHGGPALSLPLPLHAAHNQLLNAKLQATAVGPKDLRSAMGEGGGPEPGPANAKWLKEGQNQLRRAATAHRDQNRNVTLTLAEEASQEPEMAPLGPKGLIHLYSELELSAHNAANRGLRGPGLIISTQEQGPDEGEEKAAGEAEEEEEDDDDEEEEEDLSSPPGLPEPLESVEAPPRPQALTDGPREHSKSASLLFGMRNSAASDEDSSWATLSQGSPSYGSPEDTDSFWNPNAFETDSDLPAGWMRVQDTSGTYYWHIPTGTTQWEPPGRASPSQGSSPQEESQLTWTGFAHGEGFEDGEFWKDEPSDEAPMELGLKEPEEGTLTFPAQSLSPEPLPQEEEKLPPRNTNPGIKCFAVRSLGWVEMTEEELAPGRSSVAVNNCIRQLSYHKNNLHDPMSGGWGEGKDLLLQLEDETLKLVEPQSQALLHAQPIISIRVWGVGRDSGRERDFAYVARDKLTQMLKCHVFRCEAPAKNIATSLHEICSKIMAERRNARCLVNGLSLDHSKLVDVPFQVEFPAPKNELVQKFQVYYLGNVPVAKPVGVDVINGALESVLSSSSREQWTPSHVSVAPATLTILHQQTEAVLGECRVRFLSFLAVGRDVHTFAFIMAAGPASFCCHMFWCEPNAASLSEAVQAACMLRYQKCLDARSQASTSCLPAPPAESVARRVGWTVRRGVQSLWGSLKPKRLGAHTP

APP-v5 = APP-v5 (UniProt P05067); experiment: co-IP; COS7 cells transfected with APP-v5 and VLDLR-HA with empty vector, FE65-GFP or FE65-PTB2 domain-GFP; lysates immunoprecipitated with anti-HA or 5F3 (VLDLR) and probed with anti-V5 or 22C11 (APP), or with anti-V5 and probed with anti-HA; FE65 increased the co-precipitate, FE65 PTB2 decreased it against full length FE65
full length FE65-GFP = target: T3, full length FE65-GFP (UniProt O00213); experiment: co-IP; COS7 cells co-transfected with VLDLR and FE65 constructs; cell lysates (100-200 ug) immunoprecipitated by the tag or 5F3 (anti-HA, anti-myc, 5F3, anti-GFP) and the precipitate probed for the other protein's tag
T3 sequence: T2 sequence

APP-v5 (from UniProt P05067 18-770)
binding [1]: binds

VLDLR, endogenous in mouse brain (from UniProt P98156 28-873) (receptor)
binding [2]: binds

full length VLDLR (HA-tagged on the C terminal) (from UniProt P98155 28-873) (receptor)
binding [3]: binds
binding (APP-v5): binds

full length VLDLR-myc (from UniProt P98155 28-873) (receptor)
binding (full length FE65-GFP): binds
